Measurements reported in PubChem BioAssay AID1159578 (Peter MacCallum Cancer Centre, 2015)
Purpose: 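Genome-wide hunt for genes controlling movement of lymphatic endothelial cells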 (primary screen). Cell system: human lymphatic endothelial cells. Reagent: siRNA pool against human genes, 40 nM. Time to read-out: 48 h after transfection. Measured: 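Cells stained with dye and imaged after a scratch; covered wound area and nuclei counted, duplicates averaged, migration set against mock wells and turned into a robust z-score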. Scale: migration robust z-score: higher = faster migration into the scratch; nuclei per well: higher = more cells in the well. Rule for the call: 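Pools averaging fewer than 3300 nuclei are never called; remaining pools count as changed when migration robust z lies outside -2 to 2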. Meaning of the calls: active = migration changed; inactive = no migration change, or too few cells.
The deposit covers about 18,000 reagents; this is a part drawn at random. About 1,030 of all reagents (5.7%) were called active. 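Inactive calls also include pools with fewer than 3300 nuclei, whose migration was not assessed.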 The raw values are shown without normalisation. A number with no mark means an inactive call. Not all columns of the deposit are shown. No sequences are given here.

IFT80 — migration robust z-score = 1.02; migration class with cell-count check = migration z between -2 and 2; enough cells; nuclei per well, duplicate mean = 5419
LMTK1 — migration robust z-score = -2.34 (active); migration class with cell-count check = migration z below -2; enough cells; nuclei per well, duplicate mean = 3372
INO80 — migration robust z-score = -0.88; migration class with cell-count check = migration z between -2 and 2; enough cells; nuclei per well, duplicate mean = 5285
IGF1R — migration robust z-score = -0.52; migration class with cell-count check = migration z between -2 and 2; enough cells; nuclei per well, duplicate mean = 5214
STX18 — migration robust z-score = 1.79; migration class with cell-count check = migration z between -2 and 2; enough cells; nuclei per well, duplicate mean = 6331
OR6C2 — migration robust z-score = -0.82; migration class with cell-count check = migration z between -2 and 2; enough cells; nuclei per well, duplicate mean = 4714
CCDC17 — migration robust z-score = -1.08; migration class with cell-count check = migration z between -2 and 2; enough cells; nuclei per well, duplicate mean = 5944
VCX — migration robust z-score = 0.24; migration class with cell-count check = migration z between -2 and 2; enough cells; nuclei per well, duplicate mean = 6662
MYL4 — migration robust z-score = -2.44 (active); migration class with cell-count check = migration z below -2; enough cells; nuclei per well, duplicate mean = 4510
APOL4 — migration robust z-score = 0.8; migration class with cell-count check = migration z between -2 and 2; enough cells; nuclei per well, duplicate mean = 5302
STRBP — migration robust z-score = 0.11; migration class with cell-count check = migration z between -2 and 2; enough cells; nuclei per well, duplicate mean = 6286
TBPL2 — migration robust z-score = 0.57; migration class with cell-count check = migration z between -2 and 2; enough cells; nuclei per well, duplicate mean = 6038
GUSB — migration robust z-score = 0.72; migration class with cell-count check = migration z between -2 and 2; enough cells; nuclei per well, duplicate mean = 5548
RBM12B — migration robust z-score = 0.93; migration class with cell-count check = migration z between -2 and 2; enough cells; nuclei per well, duplicate mean = 6104
ING1 — migration robust z-score = -1.06; migration class with cell-count check = migration z between -2 and 2; enough cells; nuclei per well, duplicate mean = 3504
GOLGA6L9 — migration robust z-score = 0.8; migration class with cell-count check = migration z between -2 and 2; enough cells; nuclei per well, duplicate mean = 6361
NCBP1 — migration robust z-score = 0.44; migration class with cell-count check = migration z between -2 and 2; enough cells; nuclei per well, duplicate mean = 5186
OVCH2 — migration robust z-score = 0.76; migration class with cell-count check = migration z between -2 and 2; enough cells; nuclei per well, duplicate mean = 7054
ZSCAN9 — migration robust z-score = 0.39; migration class with cell-count check = migration z between -2 and 2; enough cells; nuclei per well, duplicate mean = 5267
SIRT1 — migration robust z-score = -1.06; migration class with cell-count check = migration z between -2 and 2; enough cells; nuclei per well, duplicate mean = 3769
VCY — migration robust z-score = -0.32; migration class with cell-count check = migration z between -2 and 2; enough cells; nuclei per well, duplicate mean = 5216

Records listed above called active (2):
LMTK1 — migration robust z-score = -2.34 (active); migration class with cell-count check = migration z below -2; enough cells; nuclei per well, duplicate mean = 3372
MYL4 — migration robust z-score = -2.44 (active); migration class with cell-count check = migration z below -2; enough cells; nuclei per well, duplicate mean = 4510
